Measured values as given in patent US6599894B1, “Amidinobenzylamine derivatives and their use as thrombin inhibitors” (AstŕaZeneca AB, priority 1999, dated 2003).
Some results were stated once for a whole list of compounds, not compound by compound. At least one structure is not confirmed: it was looked up by name or label, or the drawing left a doubt.

Molecular target: T1, Human thrombin (Homo sapiens, UniProt P00734)
T1 construct: the conversion of the proenzyme prothrombin to the active enzyme thrombin; purchased Sigma Chem. Co or Hematologic Technologies T 6769
Assay: Test A: determination of thrombin clotting time (TT)
Format: biochemical
Settings: concentration of inhibitor that doubles the thrombin clotting time in plasma

SMILES: N=C(N)c1ccc(CNC(=O)[C@@H]2CCN2C(=O)C(O)c2cc(Cl)cc(N3CCCC3=O)c2)cc1 (single isomer, unassigned) [Example 9, Ph(3-Cl,5-(1-Pyrrolidin-2-one))-(R) or-(S)CH(OH)C(O)-Aze-Pab×HOAc]
- IC50: < 500 nM
